Experimental data reported in PMC6079100.
These are yes or no findings as the source states them, for the method shown. In cells and extracts the contact can be indirect. A yes stands for co-enrichment or nearness to the bait. Other partners may have been found. Sequences can lack the tags named with a protein.

Amino acid sequences for entries named in this document (tags omitted).
UniProt Q6W2J9: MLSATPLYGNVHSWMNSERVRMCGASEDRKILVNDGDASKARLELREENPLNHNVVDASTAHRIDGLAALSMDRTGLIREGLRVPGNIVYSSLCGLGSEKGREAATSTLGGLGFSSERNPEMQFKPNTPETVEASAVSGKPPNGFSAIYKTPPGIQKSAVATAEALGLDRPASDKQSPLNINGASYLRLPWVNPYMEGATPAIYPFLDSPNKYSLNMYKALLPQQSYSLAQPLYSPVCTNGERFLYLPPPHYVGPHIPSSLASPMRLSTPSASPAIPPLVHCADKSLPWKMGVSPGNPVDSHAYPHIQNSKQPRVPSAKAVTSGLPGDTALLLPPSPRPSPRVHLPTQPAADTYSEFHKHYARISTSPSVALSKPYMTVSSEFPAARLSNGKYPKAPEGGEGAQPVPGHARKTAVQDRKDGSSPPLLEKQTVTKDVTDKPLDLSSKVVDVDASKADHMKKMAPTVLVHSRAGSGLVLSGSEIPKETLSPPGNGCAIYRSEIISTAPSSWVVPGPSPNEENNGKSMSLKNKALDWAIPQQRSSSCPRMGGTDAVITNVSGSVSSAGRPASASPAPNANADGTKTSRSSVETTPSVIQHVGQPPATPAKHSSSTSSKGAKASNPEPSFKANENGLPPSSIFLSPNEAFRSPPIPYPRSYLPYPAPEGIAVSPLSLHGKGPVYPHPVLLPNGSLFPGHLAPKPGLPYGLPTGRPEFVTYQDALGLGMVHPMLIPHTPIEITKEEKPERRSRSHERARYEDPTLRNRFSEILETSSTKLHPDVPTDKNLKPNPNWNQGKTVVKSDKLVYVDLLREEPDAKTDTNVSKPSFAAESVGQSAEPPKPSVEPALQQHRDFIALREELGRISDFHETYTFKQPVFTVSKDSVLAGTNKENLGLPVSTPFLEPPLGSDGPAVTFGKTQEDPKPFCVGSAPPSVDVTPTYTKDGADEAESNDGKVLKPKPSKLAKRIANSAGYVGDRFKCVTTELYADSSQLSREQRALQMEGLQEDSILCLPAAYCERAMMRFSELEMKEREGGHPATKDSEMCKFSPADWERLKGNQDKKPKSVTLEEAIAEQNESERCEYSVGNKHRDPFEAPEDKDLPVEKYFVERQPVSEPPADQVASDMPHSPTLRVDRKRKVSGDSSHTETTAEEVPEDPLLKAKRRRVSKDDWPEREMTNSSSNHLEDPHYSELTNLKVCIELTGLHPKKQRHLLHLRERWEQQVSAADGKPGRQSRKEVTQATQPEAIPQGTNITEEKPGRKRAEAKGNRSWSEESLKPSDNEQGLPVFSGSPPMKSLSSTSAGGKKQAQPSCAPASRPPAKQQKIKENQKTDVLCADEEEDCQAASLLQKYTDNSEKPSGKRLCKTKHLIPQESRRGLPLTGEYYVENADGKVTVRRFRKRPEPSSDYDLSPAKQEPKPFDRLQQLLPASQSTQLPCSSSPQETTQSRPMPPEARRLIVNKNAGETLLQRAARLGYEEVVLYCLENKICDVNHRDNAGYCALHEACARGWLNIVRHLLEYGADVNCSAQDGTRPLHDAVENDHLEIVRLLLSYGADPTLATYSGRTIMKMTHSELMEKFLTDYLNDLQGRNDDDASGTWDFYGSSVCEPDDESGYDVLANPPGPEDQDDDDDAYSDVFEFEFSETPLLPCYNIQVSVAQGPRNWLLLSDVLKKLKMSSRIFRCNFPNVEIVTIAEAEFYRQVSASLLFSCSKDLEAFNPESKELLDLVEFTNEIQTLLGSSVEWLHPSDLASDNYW
UniProt O75376: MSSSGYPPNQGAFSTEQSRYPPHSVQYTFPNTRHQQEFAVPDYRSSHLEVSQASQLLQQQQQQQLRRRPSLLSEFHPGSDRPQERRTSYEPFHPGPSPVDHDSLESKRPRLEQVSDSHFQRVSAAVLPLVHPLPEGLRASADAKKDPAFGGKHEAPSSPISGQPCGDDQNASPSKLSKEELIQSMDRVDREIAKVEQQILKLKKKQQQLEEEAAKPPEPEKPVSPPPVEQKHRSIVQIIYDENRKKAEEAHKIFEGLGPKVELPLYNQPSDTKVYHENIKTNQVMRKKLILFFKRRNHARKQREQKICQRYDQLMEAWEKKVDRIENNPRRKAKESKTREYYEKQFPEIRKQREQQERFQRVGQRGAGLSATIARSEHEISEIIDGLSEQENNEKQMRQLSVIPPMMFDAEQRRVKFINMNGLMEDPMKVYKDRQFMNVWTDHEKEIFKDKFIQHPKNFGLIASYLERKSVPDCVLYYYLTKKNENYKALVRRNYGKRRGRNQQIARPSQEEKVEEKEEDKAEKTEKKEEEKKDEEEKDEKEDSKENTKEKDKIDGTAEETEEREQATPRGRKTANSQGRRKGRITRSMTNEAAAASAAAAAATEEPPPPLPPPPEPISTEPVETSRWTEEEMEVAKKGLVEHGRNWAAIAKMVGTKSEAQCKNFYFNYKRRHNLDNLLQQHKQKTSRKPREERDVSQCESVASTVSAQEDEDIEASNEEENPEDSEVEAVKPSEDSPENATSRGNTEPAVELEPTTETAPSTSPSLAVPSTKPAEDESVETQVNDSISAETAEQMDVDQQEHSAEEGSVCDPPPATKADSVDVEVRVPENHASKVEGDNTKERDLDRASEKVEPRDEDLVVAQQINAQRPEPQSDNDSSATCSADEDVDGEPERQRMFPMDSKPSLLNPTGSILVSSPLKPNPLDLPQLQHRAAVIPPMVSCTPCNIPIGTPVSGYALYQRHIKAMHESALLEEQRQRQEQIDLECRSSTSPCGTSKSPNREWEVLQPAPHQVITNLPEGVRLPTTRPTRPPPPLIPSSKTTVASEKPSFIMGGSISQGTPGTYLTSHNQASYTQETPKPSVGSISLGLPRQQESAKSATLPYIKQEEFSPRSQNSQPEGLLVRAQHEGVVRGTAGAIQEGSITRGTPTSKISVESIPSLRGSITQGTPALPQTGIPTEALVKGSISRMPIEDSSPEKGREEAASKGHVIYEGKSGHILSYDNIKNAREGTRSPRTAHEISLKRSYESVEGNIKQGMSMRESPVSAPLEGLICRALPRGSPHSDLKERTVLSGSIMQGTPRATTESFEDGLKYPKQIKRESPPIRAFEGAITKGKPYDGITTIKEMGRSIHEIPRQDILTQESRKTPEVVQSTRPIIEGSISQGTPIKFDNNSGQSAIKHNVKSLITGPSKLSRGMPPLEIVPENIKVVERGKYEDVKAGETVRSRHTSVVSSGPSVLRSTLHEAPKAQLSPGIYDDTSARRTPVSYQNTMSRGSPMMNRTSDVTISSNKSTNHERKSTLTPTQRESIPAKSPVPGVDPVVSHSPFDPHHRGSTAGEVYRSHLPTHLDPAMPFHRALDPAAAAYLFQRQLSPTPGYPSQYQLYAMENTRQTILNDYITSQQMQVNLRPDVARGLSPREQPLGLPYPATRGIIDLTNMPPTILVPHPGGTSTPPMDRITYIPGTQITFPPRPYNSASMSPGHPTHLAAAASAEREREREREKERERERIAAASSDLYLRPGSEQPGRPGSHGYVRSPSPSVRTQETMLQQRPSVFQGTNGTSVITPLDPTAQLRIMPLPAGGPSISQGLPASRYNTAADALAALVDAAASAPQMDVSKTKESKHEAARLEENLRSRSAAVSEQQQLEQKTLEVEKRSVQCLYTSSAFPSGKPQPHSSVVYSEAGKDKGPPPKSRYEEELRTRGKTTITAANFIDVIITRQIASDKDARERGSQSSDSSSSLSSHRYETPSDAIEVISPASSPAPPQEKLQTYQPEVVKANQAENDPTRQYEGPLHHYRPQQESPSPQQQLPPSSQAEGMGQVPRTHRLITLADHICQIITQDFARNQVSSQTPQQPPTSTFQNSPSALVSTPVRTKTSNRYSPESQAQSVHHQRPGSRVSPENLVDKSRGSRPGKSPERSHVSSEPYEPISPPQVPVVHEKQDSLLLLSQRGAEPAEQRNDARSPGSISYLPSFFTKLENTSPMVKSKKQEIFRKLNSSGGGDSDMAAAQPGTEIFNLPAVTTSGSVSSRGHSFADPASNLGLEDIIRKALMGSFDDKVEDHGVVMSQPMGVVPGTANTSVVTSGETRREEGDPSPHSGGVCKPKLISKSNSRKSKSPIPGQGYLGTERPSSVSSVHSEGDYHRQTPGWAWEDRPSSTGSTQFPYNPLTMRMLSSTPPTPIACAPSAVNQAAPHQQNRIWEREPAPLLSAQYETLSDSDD

Molecular target: T1, BirA*-Flag-TRPS1 (UniProt Q9UHF7)
T1 sequence: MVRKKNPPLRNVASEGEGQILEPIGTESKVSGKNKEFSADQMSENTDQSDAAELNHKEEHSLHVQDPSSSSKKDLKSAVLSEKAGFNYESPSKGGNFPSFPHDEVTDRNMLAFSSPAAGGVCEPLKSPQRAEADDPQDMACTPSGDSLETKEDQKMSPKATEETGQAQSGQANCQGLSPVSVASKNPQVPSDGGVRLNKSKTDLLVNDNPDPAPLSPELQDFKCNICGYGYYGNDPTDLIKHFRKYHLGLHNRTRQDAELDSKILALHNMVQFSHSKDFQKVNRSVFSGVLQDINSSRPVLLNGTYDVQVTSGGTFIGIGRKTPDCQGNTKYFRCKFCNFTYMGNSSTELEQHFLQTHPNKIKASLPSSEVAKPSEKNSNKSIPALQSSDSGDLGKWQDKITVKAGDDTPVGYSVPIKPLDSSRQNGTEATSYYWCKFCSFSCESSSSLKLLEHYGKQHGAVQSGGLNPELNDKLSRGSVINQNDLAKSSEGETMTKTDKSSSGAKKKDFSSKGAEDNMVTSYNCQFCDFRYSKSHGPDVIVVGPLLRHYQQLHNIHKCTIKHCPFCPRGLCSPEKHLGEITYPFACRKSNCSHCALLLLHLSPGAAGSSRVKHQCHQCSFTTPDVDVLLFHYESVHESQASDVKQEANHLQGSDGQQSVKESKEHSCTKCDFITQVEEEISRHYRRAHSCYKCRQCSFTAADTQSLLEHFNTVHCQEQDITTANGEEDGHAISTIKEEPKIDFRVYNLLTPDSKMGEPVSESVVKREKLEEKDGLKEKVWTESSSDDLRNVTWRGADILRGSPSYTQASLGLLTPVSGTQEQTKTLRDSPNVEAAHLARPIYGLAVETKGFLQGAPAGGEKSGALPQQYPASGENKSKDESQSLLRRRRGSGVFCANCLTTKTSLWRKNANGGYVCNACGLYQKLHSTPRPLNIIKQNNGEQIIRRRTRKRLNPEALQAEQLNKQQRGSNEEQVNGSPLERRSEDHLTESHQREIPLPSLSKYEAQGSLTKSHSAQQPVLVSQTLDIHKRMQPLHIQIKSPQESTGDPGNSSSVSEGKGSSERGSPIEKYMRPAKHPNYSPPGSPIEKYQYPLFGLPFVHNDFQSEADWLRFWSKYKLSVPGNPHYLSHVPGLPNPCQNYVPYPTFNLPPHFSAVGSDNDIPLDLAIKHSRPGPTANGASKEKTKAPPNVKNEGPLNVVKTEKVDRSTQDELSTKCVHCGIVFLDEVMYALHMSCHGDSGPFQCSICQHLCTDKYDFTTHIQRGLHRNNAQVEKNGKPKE
Assay: proximity labelling; BioID: BirA*-Flag-TRPS1 or NLS-BirA*-Flag control in 293T cells, 50 μM biotin for 18 h, streptavidin pull-down, LC-MS/MS, three biological replicates

## BCOR, endogenous in 293T cells (from UniProt Q6W2J9 1-1755)
  binding: binds

## CTBP2, endogenous in 293T cells (from UniProt P56545 1-445)
  binding: binds

## NCOR1, endogenous in 293T cells (from UniProt O75376 1-2440)
  binding: binds
